Measurements taken from US20210301020A1 (Amgen, published 2021).
Numbering of substitutions follows the chain as printed. Results are given in words; binding and its absence hold for the method and conditions named. Some binding calls cover weakened binding; strength is not graded here.

Amino acid sequences for entries named in this document (tags omitted). A change or cut given only in a name is not applied to a line headed by its entry.
UniProt Q8NHL6: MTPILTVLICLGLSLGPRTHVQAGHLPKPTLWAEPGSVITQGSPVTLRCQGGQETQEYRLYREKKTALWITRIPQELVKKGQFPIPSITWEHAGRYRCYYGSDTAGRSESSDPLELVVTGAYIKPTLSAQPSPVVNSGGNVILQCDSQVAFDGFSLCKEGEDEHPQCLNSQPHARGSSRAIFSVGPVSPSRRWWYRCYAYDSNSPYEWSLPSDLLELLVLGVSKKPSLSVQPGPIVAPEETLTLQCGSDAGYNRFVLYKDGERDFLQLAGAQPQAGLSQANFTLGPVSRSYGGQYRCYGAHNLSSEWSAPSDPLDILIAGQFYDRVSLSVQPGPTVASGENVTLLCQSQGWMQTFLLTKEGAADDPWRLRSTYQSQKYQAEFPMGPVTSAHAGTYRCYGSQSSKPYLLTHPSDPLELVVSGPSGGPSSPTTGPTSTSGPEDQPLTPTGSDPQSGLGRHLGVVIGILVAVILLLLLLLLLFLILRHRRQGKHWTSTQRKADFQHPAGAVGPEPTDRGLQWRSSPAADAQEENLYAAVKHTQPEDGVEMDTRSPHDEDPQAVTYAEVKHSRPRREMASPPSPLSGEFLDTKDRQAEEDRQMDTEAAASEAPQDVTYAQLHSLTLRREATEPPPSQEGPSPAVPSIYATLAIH

B1: anti-LILRB1 antibody 3C1 (antibody, human IgG4, lambda, V domains shown)
VH: EVQLVESGGGLVQPGGSLRLSCAASGFTFSDYDMHWVRQATGKGLEWVATIDTAGDTYYPDSVRGRFTISRENAKNSLSLQMNSLRAGDTAVYFCARDVPGTGFDHWGQGTLVTVSS
VL: SSELTQDPAVSVALGQTVRITCQGDSLRSYYESWYQQKPGQAPVLVIYGKNNRPSGIPDRFSGSISGNTASLTITGTQAEDEADYYCNSRDNSGDHWVFGGGTRLTVLG
notes: Fully human antibody from XENOMOUSE XMG4-K/XMG4-KL mice, tested as hybridoma supernatant
B2: anti-LILRB1 antibody 19D6 (antibody, V domains shown)
VH: EVQLVESGGGLVQPGESLRLSCAASGFTFSDYDMHWVRQATGKGLEWVSAIDTAGDTYYLGPVKGRFTISRENAKNSLFLHMNSLRVGDTAVYYCIRDSGSSFDYWGQGTLVTVSS
VL: B1 VL with S1T, S29N, I65S, T73I, N88M, N92S, D95N, R104K, L105V
notes: Fully human antibody from XENOMOUSE mice, tested as hybridoma supernatant
B3: anti-LILRB1 antibody 30A10 (antibody, V domains shown)
VH: QVQLVESGGGVVQPGRSLRLSCAASGFTFSSYAMHWVRQAPGKGLEWVAIIWFDGSQRYYADSVKGRFTISRDNSRDTLYLQMNSLRAEDTAVYYCARDELTGFDYWGQGTLVTVSS
VL: DIQMTQSPSSLSASVGDRVTISCRASQNIINFLNWYQQKPGKAPKVLIDAASSLRSGVPSRFSGSGSETDFSLTISSLQPEDFATYYCQQSFSTPLTFGGGTKVEIRR
notes: as for B2

What follows are binders tested against Full length human LILRB1 expressed on HEK 293T cells (human) (UniProt Q8NHL6) (assay: flow cytometry on HEK 293T cells expressing full length or domain truncated human LILRB1).

| Binder | binding |
| --- | --- |
| B1 | binds |
| B2 | binds |
| B3 | binds |
